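The test systems are human melanoma cell lines, treated with a pair of drugs for 72 h and then stained and imaged. Values are the number of DAPI-stained nuclei as a percentage of the DMSO control: 100 is no effect, lower means fewer cells. Concentrations were fixed for each drug; these are the lower of two levels, a fifth of the higher. The file gives one value for each pair and line, without errors, so small differences may be noise.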
This is part of the screen, not chosen by result.
An entry leaves out what has no value listed here.
A dash means that no value is listed here.

Drug key:
U73122, 0.4 µM: COc1ccc2c(c1)CCC1C2CCC2(C)C(NCCCCCCN3C(=O)C=CC3=O)CCC12 (stereo not drawn)
T0901317, 1.4 µM: O=S(=O)(c1ccccc1)N(CC(F)(F)F)c1ccc(C(O)(C(F)(F)F)C(F)(F)F)cc1
GW441756, 0.4 µM: Cn1cc(/C=C2\C(=O)Nc3cccnc32)c2ccccc21
A-769662, 2 µM: N#Cc1c(O)c2c(-c3ccc(-c4ccccc4O)cc3)csc2[nH]c1=O
veliparib, 1.4 µM: C[C@]1(c2nc3c(C(N)=O)cccc3[nH]2)CCCN1
fludarabine, 0.2 µM: Nc1nc(F)nc2c1ncn2[C@@H]1O[C@H](CO)[C@@H](O)[C@@H]1O
BMS-536924, 0.2 µM: Cc1cc(N2CCOCC2)cc2[nH]c(-c3c(NC[C@@H](O)c4cccc(Cl)c4)cc[nH]c3=O)nc12
TCS401, 1.67 µM: O=C(O)C(=O)Nc1sc2c(c1C(=O)O)CCNC2
SU6656, 0.4 µM: CN(C)S(=O)(=O)c1ccc2c(c1)/C(=C/c1cc3c([nH]1)CCCC3)C(=O)N2
darinaparsin, 0.4 µM: C[As](C)SC[C@H](NC(=O)CC[C@H](N)C(=O)O)C(=O)NCC(=O)O
fingolimod, 2 µM: CCCCCCCCc1ccc(CCC(N)(CO)CO)cc1
dasatinib, 0.004 µM: Cc1nc(Nc2ncc(C(=O)Nc3c(C)cccc3Cl)s2)cc(N2CCN(CCO)CC2)n1
AZD7762, 0.02 µM: NC(=O)Nc1cc(-c2cccc(F)c2)sc1C(=O)N[C@H]1CCCNC1
nutlin-3, 0.1 µM: COc1ccc(C2=N[C@@H](c3ccc(Cl)cc3)[C@@H](c3ccc(Cl)cc3)N2C(=O)N2CCNC(=O)C2)c(OC(C)C)c1

Combination,COLO 829,G-361,A375,COLO 800,501mel,IPC-298,A101D,A2058
U73122 + darinaparsin,91.6,96.6,98.3,88.7,101,101,103,91.7
fingolimod + GW441756,101,83.0,-,86.3,70.4,101,63.3,76.4
veliparib + A-769662,117,103,82.2,82.9,85.8,98.6,92.1,90.1
AZD7762 + GW441756,109,103,45.8,76.2,100,108,88.6,128
T0901317 + fingolimod,70.8,71.0,-,103,37.0,94.8,79.0,85.5
AZD7762 + U73122,75.6,101,87.7,108,115,112,98.2,112
T0901317 + fludarabine,67.6,93.4,-,136,-,90.9,88.4,103
nutlin-3 + T0901317,66.4,88.7,-,53.6,82.3,87.7,82.0,107
GW441756 + dasatinib,59.4,104,85.5,96.6,-,91.3,83.6,74.2
U73122 + BMS-536924,88.5,83.3,66.0,40.3,84.8,98.3,99.3,103
veliparib + TCS401,77.7,93.0,82.0,109,105,102,84.3,101
TCS401 + BMS-536924,105,90.9,73.2,52.2,96.8,104,113,114
SU6656 + TCS401,81.7,83.4,95.6,81.8,76.4,96.5,91.1,92.3
T0901317 + darinaparsin,85.6,82.3,86.9,57.5,99.7,95.4,91.6,101
T0901317 + veliparib,81.2,78.7,63.3,82.8,84.4,88.0,100,91.0
U73122 + nutlin-3,102,85.0,-,81.0,93.1,97.3,90.6,93.8
fingolimod + fludarabine,69.0,85.5,10.4,104,-,91.0,86.8,102
A-769662 + BMS-536924,101,95.8,78.5,64.8,88.6,93.7,101,101
SU6656 + GW441756,97.4,92.5,106,111,93.6,107,91.5,92.8
veliparib + darinaparsin,82.1,86.9,105,101,-,96.6,98.7,84.6
dasatinib + A-769662,70.9,86.8,73.2,102,87.1,98.2,75.6,78.5
fingolimod + U73122,107,90.7,-,116,51.2,93.7,83.6,67.4
nutlin-3 + SU6656,87.8,96.7,102,106,-,97.5,90.2,101
A-769662 + nutlin-3,91.9,90.1,-,174,101,103,101,89.2
A-769662 + SU6656,86.9,90.2,101,110,99.2,101,103,94.2
T0901317 + BMS-536924,110,92.7,90.2,47.9,93.3,91.0,90.6,95.9
AZD7762 + T0901317,115,91.2,47.8,96.0,96.1,95.2,96.8,106
dasatinib + TCS401,66.0,98.3,85.1,57.9,101,93.8,84.0,82.2
fingolimod + A-769662,87.2,84.8,-,74.7,35.1,95.7,96.0,104
fludarabine + AZD7762,111,98.7,11.6,101,-,97.4,75.9,92.2
A-769662 + darinaparsin,82.2,93.2,96.1,108,96.9,93.3,96.9,98.8
GW441756 + nutlin-3,82.9,99.3,-,136,91.2,95.0,101,99.2

3 of the entries, repeated:

{"combination": "T0901317 + darinaparsin", "COLO 829": 85.6, "G-361": 82.3, "A375": 86.9, "COLO 800": 57.5, "501mel": 99.7, "IPC-298": 95.4, "A101D": 91.6, "A2058": 101}
{"combination": "SU6656 + TCS401", "COLO 829": 81.7, "G-361": 83.4, "A375": 95.6, "COLO 800": 81.8, "501mel": 76.4, "IPC-298": 96.5, "A101D": 91.1, "A2058": 92.3}
{"combination": "T0901317 + veliparib", "COLO 829": 81.2, "G-361": 78.7, "A375": 63.3, "COLO 800": 82.8, "501mel": 84.4, "IPC-298": 88.0, "A101D": 100, "A2058": 91.0}

Data from the primary screen of doi:10.1371/journal.pone.0140310, rounded.